Laboratory results: PubChem BioAssay AID720505 (Drosophila RNAi Screening Center, 2013)

Screen: 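Knock-downs that reduce calcium influx once internal stores are emptied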 (primary screen)
System: Drosophila S2R+ cells
Knock-down reagent: long dsRNA against Drosophila genes
Treatment: thapsigargin (2 µM) in calcium-free buffer to empty internal stores, then 2 mM calcium added back
Detection: 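Stores emptied by 2 µM thapsigargin without calcium, then 2 mM calcium re-added; fluo-4 fluorescence followed by FLIPR in 384-well plates, per-well averaged endpoint, raw; two screen passes, some wells retested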
Reading the numbers: calcium signal and retest calcium signal: higher = more calcium entry after store depletion
Active means: 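About 1500 genes called as lowering calcium entry, by varying amounts, judged against per-plate control wells with STIM1 as positive and Rho1 as negative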
Calls: active = called as lowering calcium entry; inactive = not called
The screen tested about 20,000 reagents; shown is an unselected part of those that have a named target and a result. In the full data, about 2,100 (10%) are marked active. 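Raw plate signals without normalisation; calls rest on control-based scores that were not deposited; replicate 2 separates called from uncalled poorly.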 A plus sign joins genes that one reagent is predicted to hit. No sequences are given here. The record does not give: the amount of reagent, the time to read-out.

Gene | amplicon | calcium signal, replicate 1 | calcium signal, replicate 2 | retest calcium signal, replicate 1 | retest calcium signal, replicate 2 | Outcome
NimB1 (Nimrod B1) | DRSC01880 | 99.7 | 88.5 | – | – | inactive
CG4045 | DRSC18518 | 139 | 136 | – | – | inactive
AdamTS-A (ADAM metallopeptidase with thrombospondin type 1 motif A) | DRSC14992 | 111 | 104 | – | – | inactive
AdamTS-A (ADAM metallopeptidase with thrombospondin type 1 motif A) | DRSC15966 | 96.2 | 94.6 | – | – | inactive
Sec8 (Secretory 8) | DRSC12300 | 114 | 75.8 | – | – | inactive
lectin-33A | DRSC02529 | 170 | 127 | – | – | inactive
lectin-33A | DRSC22116 | 129 | 128 | – | – | inactive
MED31 (Mediator complex subunit 31) | DRSC12142 | 121 | 76.8 | – | – | inactive
run (runt) | DRSC20584 | 235 | 142 | – | – | inactive
run (runt) | DRSC21515 | 158 | 136 | – | – | inactive
CG9743 | DRSC16552 | 124 | 109 | – | – | inactive
betaNACtes3 (Nascent-associated complex beta-subunit-like, testis 3) | DRSC20183 | 128 | 182 | – | – | inactive
vex (vexed) | DRSC19481 | 102 | 98 | – | – | inactive
vex (vexed) | DRSC19651 | 96.1 | 129 | – | – | inactive
vex (vexed) | DRSC21843 | 64.8 | 116 | – | – | inactive
COX5A (Cytochrome c oxidase subunit 5A) | DRSC16611 | 157 | 102 | – | – | inactive
Vha100-5 (Vacuolar H[+] ATPase 100kD subunit 5) | DRSC02175 | 165 | 132 | – | – | inactive
CG10560 | DRSC14256 | 263 | 117 | – | – | inactive
exp (expansion) | DRSC06313 | 87.6 | 168 | – | – | inactive
CG42726 + CG42727 | DRSC14485 | 109 | 118 | – | – | inactive
twf (twinfilin) | DRSC15466 | 110 | 121 | – | – | inactive
mtgo (miles to go) | DRSC02245 | 60.3 | 114 | 154 | 174 | active
mtgo (miles to go) | DRSC02246 | 195 | 169 | 118 | 140 | inactive
mtgo (miles to go) | DRSC02769 | 95.3 | 161 | – | – | inactive
mtgo (miles to go) | DRSC21392 | 144 | 120 | – | – | inactive
mtgo (miles to go) | DRSC21743 | 123 | 109 | – | – | inactive
CG30273 | DRSC22059 | 83.1 | 220 | – | – | inactive
Csl4 | DRSC02944 | 169 | 150 | – | – | inactive
Csl4 | DRSC22664 | 72.1 | 121 | – | – | inactive
Mes2 (Mesoderm-expressed 2) | DRSC11632 | 66.6 | 143 | 126 | 127 | active
narya | DRSC19439 | 206 | 149 | – | – | inactive
nAChRalpha7 (nicotinic Acetylcholine Receptor alpha7) | DRSC20078 | 181 | 82.5 | – | – | inactive
nAChRalpha7 (nicotinic Acetylcholine Receptor alpha7) | DRSC20081 | 147 | 80.6 | – | – | inactive
Gapdh1 (Glyceraldehyde 3 phosphate dehydrogenase 1) | DRSC07433 | 88.2 | 74.9 | – | – | inactive
CG31391 | DRSC16047 | 117 | 119 | – | – | inactive
CG13318 | DRSC14581 | 144 | 189 | – | – | inactive
GluRS-m (Glutamyl-tRNA synthetase, mitochondrial) | DRSC10431 | 65.7 | 152 | – | – | inactive
TTLL15 (Tubulin tyrosine ligase-like 15) | DRSC15543 | 151 | 89.5 | – | – | inactive
CG11134 | DRSC19384 | 115 | 169 | – | – | inactive
CG30472 | DRSC22245 | 82.2 | 92.5 | – | – | inactive
mRpL55 (mitochondrial ribosomal protein L55) | DRSC14764 | 113 | 132 | – | – | inactive
CG13344 | DRSC06378 | 145 | 160 | – | – | inactive

In a second layout: entries from further up.
| Gene | amplicon | calcium signal, replicate 1 | calcium signal, replicate 2 | retest calcium signal, replicate 1 | retest calcium signal, replicate 2 | Outcome |
| --- | --- | --- | --- | --- | --- | --- |
| CG42726 + CG42727 | DRSC14485 | 109 | 118 | – | – | inactive |
| twf (twinfilin) | DRSC15466 | 110 | 121 | – | – | inactive |
| mtgo (miles to go) | DRSC02245 | 60.3 | 114 | 154 | 174 | active |
| mtgo (miles to go) | DRSC02246 | 195 | 169 | 118 | 140 | inactive |
| mtgo (miles to go) | DRSC02769 | 95.3 | 161 | – | – | inactive |
| mtgo (miles to go) | DRSC21392 | 144 | 120 | – | – | inactive |
| mtgo (miles to go) | DRSC21743 | 123 | 109 | – | – | inactive |
| CG30273 | DRSC22059 | 83.1 | 220 | – | – | inactive |
| Csl4 | DRSC02944 | 169 | 150 | – | – | inactive |
| Csl4 | DRSC22664 | 72.1 | 121 | – | – | inactive |
| Mes2 (Mesoderm-expressed 2) | DRSC11632 | 66.6 | 143 | 126 | 127 | active |
| narya | DRSC19439 | 206 | 149 | – | – | inactive |
| nAChRalpha7 (nicotinic Acetylcholine Receptor alpha7) | DRSC20078 | 181 | 82.5 | – | – | inactive |
| nAChRalpha7 (nicotinic Acetylcholine Receptor alpha7) | DRSC20081 | 147 | 80.6 | – | – | inactive |
| Gapdh1 (Glyceraldehyde 3 phosphate dehydrogenase 1) | DRSC07433 | 88.2 | 74.9 | – | – | inactive |
| CG31391 | DRSC16047 | 117 | 119 | – | – | inactive |

The listing continues.
Gene | amplicon | calcium signal, replicate 1 | calcium signal, replicate 2 | retest calcium signal, replicate 1 | retest calcium signal, replicate 2 | Outcome
Ost48 (Oligosaccharyltransferase 48kD subunit) | DRSC18693 | 142 | 114 | – | – | inactive
Ktl (Kctd12-like) | DRSC14270 | 186 | 267 | – | – | inactive
srw (shrew) | DRSC08201 | 116 | 117 | – | – | inactive
COX5BL (Cytochrome c oxidase subunit 5B-like) | DRSC02123 | 139 | 129 | – | – | inactive
CG30099 | DRSC07039 | 142 | 191 | – | – | inactive
CG34247 | DRSC09933 | 91.8 | 153 | – | – | inactive
CG17190 | DRSC15184 | 101 | 75 | – | – | inactive
CG1116 | DRSC12166 | 128 | 118 | – | – | inactive
Lectin-galC1 (Galactose-specific C-type lectin) | DRSC03362 | 142 | 88.3 | – | – | inactive
BBS9 (Bardet-Biedl syndrome 9) | DRSC04257 | 126 | 117 | – | – | inactive
CG17068 | DRSC20545 | 122 | 143 | – | – | inactive
Pex7 (Peroxin 7) | DRSC10651 | 77.7 | 70.7 | – | – | inactive
VhaAC39-1 (Vacuolar H[+] ATPase AC39 subunit 1) | DRSC18242 | 118 | 142 | – | – | inactive
CG1371 | DRSC06409 | 210 | 211 | – | – | inactive
Sqor (Sulfide quinone oxidoreductase) | DRSC08453 | 65.7 | 79.6 | – | – | active
emc (extra macrochaetae) | DRSC08715 | 110 | 180 | – | – | inactive
emc (extra macrochaetae) | DRSC23238 | 122 | 139 | – | – | inactive
CG42568 + DnaJ-60 | DRSC04207 | 97.1 | 115 | – | – | inactive
CG42568 + DnaJ-60 | DRSC04611 | 184 | 79.7 | – | – | inactive
ksr (kinase suppressor of ras) | DRSC12379 | 102 | 137 | – | – | inactive
Polr3A (RNA polymerase III subunit A) | DRSC19766 | 90.5 | 92.4 | – | – | active
roh (reduction of Rh1) | DRSC04003 | 67 | 51.6 | – | – | active
CG12912 | DRSC06227 | 59 | 90.6 | – | – | active
Cyp313b1 (Cytochrome P450 313b1) | DRSC16629 | 98.9 | 212 | – | – | inactive
CG15071 | DRSC06504 | 157 | 192 | – | – | inactive
Muc55B (Mucin 55B) | DRSC21440 | 152 | 66.7 | – | – | inactive
GC2 | DRSC14476 | 177 | 84.8 | – | – | inactive
CG1958 | DRSC18196 | 212 | 105 | – | – | inactive
Mcm6 (Minichromosome maintenance 6) | DRSC18680 | 221 | 105 | – | – | inactive
Cubn2 (Cubilin 2) | DRSC10561 | 93 | 89.7 | – | – | inactive
Cubn2 (Cubilin 2) | DRSC22044 | 117 | 206 | – | – | inactive
FBXO11 (F-box protein 11) | DRSC16497 | 124 | 152 | – | – | inactive
DIP-theta (Dpr-interacting protein theta) | DRSC00885 | 110 | 136 | 8547 | 153 | inactive
DIP-theta (Dpr-interacting protein theta) | DRSC02340 | 151 | 96.2 | – | – | inactive
DIP-theta (Dpr-interacting protein theta) | DRSC02341 | 143 | 89.5 | – | – | inactive
Zwilch | DRSC15376 | 212 | 123 | – | – | inactive
wnd (wallenda) | DRSC11046 | 108 | 96.1 | – | – | inactive
wnd (wallenda) | DRSC21373 | 117 | 139 | – | – | inactive
CG13978 | DRSC14720 | 194 | 162 | – | – | inactive
CG14227 | DRSC19584 | 150 | 136 | – | – | inactive
CG8219 | DRSC10971 | 100 | 75.5 | – | – | inactive
Sirt4 (Sirtuin 4) | DRSC18290 | 153 | 132 | – | – | inactive
CG43163 | DRSC10748 | 61.3 | 62.6 | – | – | active
Stt3B | DRSC16781 | 297 | 153 | – | – | inactive
retm (real-time) | DRSC03252 | 108 | 217 | – | – | inactive
Adgf-A (Adenosine deaminase-related growth factor A) | DRSC10566 | 130 | 76.5 | – | – | inactive
Nmdar1 (NMDA receptor 1) | DRSC12356 | 120 | 110 | – | – | inactive
Dbct (Dihydrolipoamide branched chain transacylase E2) | DRSC19951 | 146 | 109 | – | – | inactive
CG16853 | DRSC01877 | 94.6 | 155 | – | – | inactive
vg (vestigial) | DRSC07715 | 98.7 | 143 | 133 | 107 | inactive
vg (vestigial) | DRSC22669 | 83.8 | 110 | – | – | inactive
CG17528 | DRSC07761 | 75.5 | 143 | – | – | inactive
grk (gurken) | DRSC03540 | 139 | 211 | – | – | inactive
CG33306 | DRSC01899 | 92.5 | 83.4 | – | – | inactive
CG42819 | DRSC02264 | 197 | 204 | – | – | inactive
Hr51 (Hormone receptor 51) | DRSC06627 | 96.5 | 195 | – | – | inactive
Hr51 (Hormone receptor 51) | DRSC22829 | 112 | 104 | – | – | inactive
CG42811 | DRSC15367 | 231 | 121 | – | – | inactive
Dhit (Double hit) | DRSC07411 | 183 | 90.7 | – | – | inactive
CG12061 | DRSC20715 | 191 | 103 | – | – | inactive
CG10209 | DRSC05980 | 184 | 136 | – | – | inactive
CG18418 | DRSC08535 | 79 | 84.5 | – | – | inactive
salm (spalt major) | DRSC03606 | 184 | 178 | – | – | inactive
CG9698 | DRSC16539 | 161 | 94 | – | – | inactive
